The filed quantity is “Percent Effect” (%). How 0% and 100% were set is not recorded. Most values in the screen are low, and negative values occur. This is an unselected part of the compounds tested. A dash means the value is not listed here; it may have been measured.

The chains behind the UniProt entries cited, without tags or fusion partners.
UniProt P9WFT3, whole entry: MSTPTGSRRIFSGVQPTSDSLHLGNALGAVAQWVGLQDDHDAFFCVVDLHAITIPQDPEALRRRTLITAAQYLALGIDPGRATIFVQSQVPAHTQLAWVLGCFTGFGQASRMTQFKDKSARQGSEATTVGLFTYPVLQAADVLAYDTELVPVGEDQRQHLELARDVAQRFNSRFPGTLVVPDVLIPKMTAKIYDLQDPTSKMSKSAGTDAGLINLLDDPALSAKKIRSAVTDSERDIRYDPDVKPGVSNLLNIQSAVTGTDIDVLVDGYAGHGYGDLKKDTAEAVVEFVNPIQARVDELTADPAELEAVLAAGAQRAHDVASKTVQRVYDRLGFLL
UniProt I6X8D2, whole entry: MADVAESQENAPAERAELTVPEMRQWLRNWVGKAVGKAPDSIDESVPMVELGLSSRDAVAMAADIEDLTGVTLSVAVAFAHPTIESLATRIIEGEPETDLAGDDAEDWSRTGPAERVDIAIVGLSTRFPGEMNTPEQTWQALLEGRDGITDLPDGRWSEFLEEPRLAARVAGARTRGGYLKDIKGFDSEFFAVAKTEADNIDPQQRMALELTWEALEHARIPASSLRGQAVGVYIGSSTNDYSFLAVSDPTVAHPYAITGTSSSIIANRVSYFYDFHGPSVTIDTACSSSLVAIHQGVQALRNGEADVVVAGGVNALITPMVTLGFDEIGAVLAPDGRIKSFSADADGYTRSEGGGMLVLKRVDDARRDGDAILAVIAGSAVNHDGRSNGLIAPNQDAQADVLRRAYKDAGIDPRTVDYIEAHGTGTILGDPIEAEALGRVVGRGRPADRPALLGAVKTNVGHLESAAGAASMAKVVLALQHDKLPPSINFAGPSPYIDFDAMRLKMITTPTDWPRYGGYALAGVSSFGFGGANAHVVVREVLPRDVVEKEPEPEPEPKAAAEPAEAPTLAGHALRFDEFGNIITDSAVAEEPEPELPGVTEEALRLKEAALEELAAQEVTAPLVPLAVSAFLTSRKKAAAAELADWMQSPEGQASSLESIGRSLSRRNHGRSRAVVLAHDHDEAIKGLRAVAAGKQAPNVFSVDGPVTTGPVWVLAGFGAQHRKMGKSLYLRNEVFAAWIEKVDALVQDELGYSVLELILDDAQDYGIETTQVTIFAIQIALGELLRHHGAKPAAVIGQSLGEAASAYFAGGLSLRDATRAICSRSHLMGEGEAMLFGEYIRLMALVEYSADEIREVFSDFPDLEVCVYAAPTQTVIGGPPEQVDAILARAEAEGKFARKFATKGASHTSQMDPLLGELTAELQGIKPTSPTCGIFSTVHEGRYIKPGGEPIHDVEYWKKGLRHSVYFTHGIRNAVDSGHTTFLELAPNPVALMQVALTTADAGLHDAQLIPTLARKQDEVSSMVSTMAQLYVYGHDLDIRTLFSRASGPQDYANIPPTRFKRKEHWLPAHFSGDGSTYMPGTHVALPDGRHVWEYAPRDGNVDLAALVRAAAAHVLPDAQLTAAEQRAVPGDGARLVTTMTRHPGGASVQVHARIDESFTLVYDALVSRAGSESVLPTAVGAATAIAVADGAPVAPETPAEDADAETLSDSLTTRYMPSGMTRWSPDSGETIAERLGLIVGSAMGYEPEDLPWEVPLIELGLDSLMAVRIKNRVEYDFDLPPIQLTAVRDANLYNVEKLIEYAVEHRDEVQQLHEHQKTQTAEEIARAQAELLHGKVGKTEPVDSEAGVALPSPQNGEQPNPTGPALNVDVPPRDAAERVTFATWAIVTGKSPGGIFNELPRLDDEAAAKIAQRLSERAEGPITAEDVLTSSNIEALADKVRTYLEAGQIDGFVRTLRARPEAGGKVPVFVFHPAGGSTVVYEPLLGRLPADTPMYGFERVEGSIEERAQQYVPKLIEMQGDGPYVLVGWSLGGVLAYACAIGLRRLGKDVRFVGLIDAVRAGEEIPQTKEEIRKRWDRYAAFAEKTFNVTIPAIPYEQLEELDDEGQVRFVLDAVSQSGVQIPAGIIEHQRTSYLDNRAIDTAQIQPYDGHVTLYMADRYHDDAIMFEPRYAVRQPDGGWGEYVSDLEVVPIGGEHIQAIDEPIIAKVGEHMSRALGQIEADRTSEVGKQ

MtTrpRS: 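Enzyme assay of tryptophanyl-tRNA synthetase; the read-out is not stated. Target: Tryptophan-tRNA ligase, Mycobacterium tuberculosis (UniProt P9WFT3). Concentration: 10 µM. Direction is not recorded; retested compounds ran higher, which suggests that high means inhibition. Size under these conditions: about 65,000 compounds, about 64 of them at 50% or above in at least one test.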
Pks13 thioesterase: 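Enzyme assay of the thioesterase domain of polyketide synthase 13; the read-out is not stated. Target: Polyketide synthase Pks13, Mycobacterium tuberculosis (UniProt I6X8D2). Compounds at 30 µM. Higher reads as stronger inhibition (inferred from which compounds were picked for retests). Of about 67,000 compounds tested this way, about 300 (0.46%) reached 50% or more in at least one test.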

| # | Compound | MtTrpRS | Pks13 thioesterase |
|---|---|---|---|
| 1 | `CCS(=O)(=O)N1CCO[C@H]2[C@H](OCC3CCCC3)CC[C@@H]21` | -2.833 | -37.2 |
| 2 | `c1cc(CN2CCO[C@H]3[C@H](OCC4CCOCC4)CC[C@@H]32)co1` | - | -0.9739 |
| 3 | `Cc1ncc(C)c(N2CCCC(CO)(Cc3cccc(Cl)c3)C2)n1` (stereo not given) | -1.077 | -18 |
| 4 | `Cc1cccc(COC[C@@]23CCC[C@@H]2CN(C(=O)Cc2ccco2)C3)n1` | -5.478 | - |
| 5 | `Cc1cc(NC2CCN(Cc3ccccn3)CC2)n2nc(C)c(C)c2n1` | -1.636 | 2.228 |
| 6 | `COCCN1CCN(CCCS(=O)(=O)c2ccccc2)CC1C` (stereo not given) | 0.6803 | -9.015 |
| 7 | `COCC(=O)N1Cc2cnc(Cc3ccc(OC)cc3)nc2C1` | -1.782 | -14.55 |
| 8 | `CCN1CCc2cc(-c3cncn3CCNC3CCS(=O)(=O)C3)ccc21` (stereo not given) | -0.2038 | -2.589 |
| 9 | `N#Cc1ccccc1CNC(C(=O)N1CCOCC1)c1ccccc1` (stereo not given) | -4.4 | - |
| 10 | `CC(C)OCc1ccc(CNC(=O)NC2(CO)CCCC2)cc1` | -1.878 | -13.59 |
| 11 | `O=C1CO[C@@H]2CN(S(=O)(=O)c3ccccc3)C[C@H]2N1CC1CC1` | 4.302 | -9.443 |
| 12 | `CCS(=O)(=O)N1C[C@@H](O)[C@H](N(C)Cc2ccc(F)cc2)C1` | -8.073 | 1.346 |
| 13 | `COCCC1(CNC(=O)Nc2ccc(-n3cccn3)cc2)CCC1` | 1.864 | -17.81 |
| 14 | `CCc1nc2n(n1)CC(NCc1nc(Cc3ccccc3)no1)CC2` (stereo not given) | 12.55 | -10.79 |
| 15 | `COCCN1CCC(CNC(=O)c2cc(Cl)c[nH]2)CC1` | -1.872 | 4.51 |
| 16 | `Cn1nnc2c1C(COCC1CC1)CN(C(=O)[C@H]1CCCO1)C2` (stereo not given in full) | 4.554 | -17.58 |
| 17 | `COc1ccc(C(C(=O)O)N(C)Cc2c(C)nn(C)c2C)c(C)c1` (stereo not given) | 1.161 | 9.166 |
| 18 | `O=C(NCc1cccc(N2CC=CC2)c1)NCC(F)(F)F` | -3.374 | -66.74 |
| 19 | `Cc1cccn2c(CNC(C)CCc3ccc(O)cc3)cnc12` (stereo not given) | -2.755 | -13.37 |
| 20 | `COc1cccc(CN2CC(O)CN(S(C)(=O)=O)CC2=O)c1OC` (stereo not given) | - | -10.36 |
| 21 | `COc1ccccc1C1CNC(=O)c2nc(-c3cn(C)nc3C)[nH]c2C1` (stereo not given) | 12.15 | -3.523 |
| 22 | `COCCc1noc(Cn2ccc3ncccc3c2=O)n1` | -2.52 | -2.593 |
| 23 | `COc1ccc(C2=NOC(C#N)C2)cc1` (stereo not given) | 3.692 | 12.12 |
| 24 | `Cc1ncncc1C(=O)N1CCCN(Cc2cnn(C(C)C)c2)CC1` | -3.524 | 0.5433 |
| 25 | `O=C1CN(Cc2ccc(-c3ccccc3C(=O)O)cc2)CCN1` | -5.417 | -3.791 |
| 26 | `Cc1nc(C2(O)CCCNCC2)sc1CCOc1ccccc1F` (stereo not given) | -10.04 | 6.385 |
| 27 | `CN(Cc1ccc(F)cc1F)Cc1cc2c(cc1Br)OCCO2` | 2.234 | 16.3 |
| 28 | `CC(c1ccc(F)c(F)c1)N(C)CCS(=O)(=O)CCC(N)=O` (stereo not given) | -4.383 | -21.29 |
| 29 | `CN(CCCNC(=O)c1ccc(C#N)cc1)CC(F)(F)F` | 1.801 | -6.436 |
| 30 | `COC(C)c1noc(CN(C)c2nccnc2C#N)n1` (stereo not given) | -0.455 | -19.07 |
| 31 | `NC(=O)c1c[nH]nc1NCc1ccc2c(c1)OCO2` | -2.346 | 5.122 |
| 32 | `COCCN1CCN(CC(C)(O)c2cccc(C(F)(F)F)c2)CC1` (stereo not given) | 2.321 | -19.15 |
| 33 | `CCS(=O)(=O)N1CCc2ccc(NC(=O)Nc3cccc(F)c3)cc21` | 4.255 | 36.6 |
| 34 | `NC(=O)c1cnc(NC2CCN(c3ccccc3)CC2)c(Cl)c1` | 0.9372 | -27.19 |
| 35 | `Oc1ccc(Cl)cc1CNCc1ccccc1Cl` | -0.4167 | 4.672 |
| 36 | `CC(C)C(C(=O)N1CCCN(Cc2cscn2)CC1)n1cncn1` (stereo not given) | -0.3228 | -23.71 |
| 37 | `CC(Cn1cccn1)NC(=O)NCCc1cnn(C)c1` (stereo not given) | -4.17 | -10.44 |
| 38 | `Cc1noc(Cl)c1CCC(=O)N1CCCCC1Cn1cccn1` (stereo not given) | -1.589 | -25.86 |
| 39 | `Cc1noc(C)c1CCC(=O)NCCc1cccs1` | 0.5319 | -36.61 |
| 40 | `CCOCc1cc(CNC2CCCc3c2cnn3CC)ccc1OC` (stereo not given) | 3.897 | -7.084 |
| 41 | `Cc1nc(C)n(C2CCCN(C(=O)CCCc3ccccn3)C2)n1` (stereo not given) | 2.921 | -10.61 |
| 42 | `CCNc1ncc(C(=O)NCc2cccc(OC(F)(F)F)c2)cn1` | 0.618 | -39.35 |
| 43 | `O=C(CSc1ccccc1)N1CCc2c(ncnc2N2CCOCC2)C1` | -1.016 | -26.33 |
| 44 | `CCC[C@@H]1CN(Cc2nnc(-c3cccc(F)c3)o2)C[C@H]1NC(C)=O` | -2.478 | -9.068 |
| 45 | `Cc1nn(C)c(N(C)C)c1CNCCNS(C)(=O)=O` | -3.192 | -3.561 |
| 46 | `CN(C)Cc1n[nH]c2c1CCN(Cc1cccs1)C2` | -4.328 | -24.67 |
| 47 | `Cn1ncc2c1CCCC2NCc1cccc2c1OCCCO2` (stereo not given) | -3.323 | - |
| 48 | `Fc1cnc(N2C[C@H]3CN(Cc4cccc(F)c4)C[C@H]3C2)nc1` | -0.9161 | -12.2 |
| 49 | `CCn1c(C)nnc1CN(C)C1CCN(CCOc2ccccc2)C1` (stereo not given) | 1.129 | -22.75 |
| 50 | `CN(C)c1ncc(-c2cc(C(=O)O)n(CC3CC3)c2)cn1` | -6.567 | 8.906 |
| 51 | `CCOc1nnc(CN(CC)CC(=O)NC(C)C)s1` | -2.065 | 18.96 |
| 52 | `O=C(C1CNCCO1)N1CCC(c2cc(N3CCCC3)ncn2)CC1` (stereo not given) | 11.19 | -0.9455 |
| 53 | `O=C(c1cscn1)N1CC[C@H]2C[C@@H](c3ccncn3)O[C@@H]2C1` | 2.964 | -4.48 |
| 54 | `CCC(CN1CCN(C)CC1)NC(=O)C1(c2cccc(F)c2)CC1` (stereo not given) | -1.847 | 10.24 |
| 55 | `CCc1nccc(CN2CCC(CNC(=O)c3occc3C)C2)n1` (stereo not given) | 0.07246 | 0.7086 |
| 56 | `Cn1ccnc1C(O)c1ccccc1N1CCN(CC2CCCC2)CC1` (stereo not given) | -6.07 | 7.208 |
| 57 | `CCOc1cc(C)nc(N2CCN(Cc3nccn3CC)CC2)n1` | 10.8 | -4.099 |
| 58 | `COc1ccccc1N1CCC(CNCc2cccc(O)c2)C1` (stereo not given) | -0.8607 | -4.635 |
| 59 | `CC(C)C1CN(Cc2nccn2C(C)C)CCC(=O)N1CC1CC1` (stereo not given) | 1.175 | -19.58 |
| 60 | `c1csc(N2CCCN(Cc3noc(C4CC4)n3)CC2)n1` | 1.305 | -2.943 |
| 61 | `CC(C)C(C)NC(=O)c1ncn2c1CN(C)S(=O)(=O)c1ccccc1-2` (stereo not given) | 3.475 | -0.4339 |
| 62 | `CC(C)C(N)C1=N/C(=C2\N=CN=N2)NO1` (stereo not given) | -0.1142 | -36.85 |
| 63 | `Cc1csc(CN(C)C(C)C(=O)N2CCc3ccccc3C2)n1` (stereo not given) | 6.776 | 15.6 |
| 64 | `Cn1cnnc1CCNC(=O)c1ccccc1OC1CCC1` | -2.624 | -25.71 |
| 65 | `CC(C)Oc1cccc(CN(C)C(=O)Cc2ccon2)c1` | -0.8895 | -10.7 |
| 66 | `CO[C@H]1CO[C@@]2(CCCN(C(=O)C3CC=CC3)C2)C1` | - | -7.824 |
| 67 | `CN(C)C(CNCc1nc(-c2ccsc2)no1)c1cccc(F)c1` (stereo not given) | -3.381 | -15.5 |
| 68 | `O=C(NCc1ccc(OCC2CC2)nc1)C1COc2ccccc2O1` (stereo not given) | 2.352 | -9.952 |

4 of the entries, repeated:

Result for Cc1cccc(COC[C@@]23CCC[C@@H]2CN(C(=O)Cc2ccco2)C3)n1 was MtTrpRS: -5.478%.
Result for CCOCc1cc(CNC2CCCc3c2cnn3CC)ccc1OC (stereo not given) was MtTrpRS: 3.897%; Pks13 thioesterase: -7.084%.
Result for CCc1nccc(CN2CCC(CNC(=O)c3occc3C)C2)n1 (stereo not given) was MtTrpRS: 0.07246%; Pks13 thioesterase: 0.7086%.
Result for CCS(=O)(=O)N1C[C@@H](O)[C@H](N(C)Cc2ccc(F)cc2)C1 was MtTrpRS: -8.073%; Pks13 thioesterase: 1.346%.

Measurements from “University of Dundee, Small-Polar-MMV Screening Library” (2021), ChEMBL document CHEMBL3988442.